Laboratory results as given in patent US20040136959A1 (published 2004).
These are yes or no findings as the source states them, for the method shown. Some entries that bind do so weakly or less than the wild type.

Protein sequences, listed by entry. Tags and fused reporters are not part of them. Residues count along the entry.
UniProt P35225, residues 35-146: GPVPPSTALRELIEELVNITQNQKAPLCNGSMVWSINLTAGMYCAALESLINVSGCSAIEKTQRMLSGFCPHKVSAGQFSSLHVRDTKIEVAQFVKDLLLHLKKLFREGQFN

How the values were obtained:
[1] = molecular target: T1, human IL-13 receptor α2 chain (IL-13Rα2) (human, UniProt Q14627 27-380); experiment: 125I-IL-13 radioreceptor binding on A253α2, YCUT891α2 and KCCT871α2 stable transfectants
T1 construct: also called IL-13Rα2 chain; IL-13Rα chain
T1 sequence: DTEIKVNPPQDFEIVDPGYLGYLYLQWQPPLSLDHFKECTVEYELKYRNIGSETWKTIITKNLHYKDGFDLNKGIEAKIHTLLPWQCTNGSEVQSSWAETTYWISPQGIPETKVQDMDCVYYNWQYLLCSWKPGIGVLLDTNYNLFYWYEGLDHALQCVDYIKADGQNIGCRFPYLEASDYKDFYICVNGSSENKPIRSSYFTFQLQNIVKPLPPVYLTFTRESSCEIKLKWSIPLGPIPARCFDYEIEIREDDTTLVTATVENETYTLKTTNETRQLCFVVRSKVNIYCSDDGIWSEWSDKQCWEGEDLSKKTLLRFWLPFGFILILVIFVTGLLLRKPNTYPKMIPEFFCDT

[2] = molecular target: T1, human IL-13 receptor α2 chain (IL-13Rα2); experiment: 125I-IL-13 radioreceptor binding on DU145α2 cells; binding 'greatly increased' after IL-13Rα2 transfection
[3] = molecular target: T1, human IL-13 receptor α2 chain (IL-13Rα2); experiment: 125I-IL-13 radioreceptor binding on transfected cells
[4] = molecular target: T1, human IL-13 receptor α2 chain (IL-13Rα2); experiment: 125I-IL-13 (200 pM) radioreceptor binding on T98G, A253, Caki-1 and PANC-1 cells transiently transfected with IL-13Rα2, 4 C, 2 h

Measured: binding

Recombinant human IL-13 (from UniProt P35225 35-146) (ligand)
binds: all assays above
